# Reference: PubChem BioAssay AID493014 (National Center for Advancing Translational Sciences (NCATS), 2011)
# Values joined by “and” are separate entries in the source; they are usually repeats but may differ in a detail not shown here. Identical values can stand only once. Some of the results follow. These are further read-outs of the screen, such as a control signal, another cell line or another target. No call is given for them. Most of these compounds were active or inconclusive in the main read-out, so they are no random draw. The note in brackets gives the kind of curve behind each potency; many fits are weak.
# Assay: qHTS Assay to Find Inhibitors of Chronic Active B-Cell Receptor Signaling
# Details: ABC-DLBCL IkBa-CBG/CBR reporter, luminescence ratio (green luciferase fused to IkBa over red control in TMD8 lymphoma cells), 4 h
# Summary of the method: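 Compounds up to 46 uM were incubated four hours with TMD8 cells whose green CBG68 luciferase is fused to IkappaBalpha; red CBR luminescence normalised the signal, and concentration-effect curves were fitted to fusion, red and ratio data.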
# [1] = measured here: CBR red luminescence, cell number
# [2] = measured here: IkBa-CBG green luminescence
SMILES,AC50 [1],AC50 [2]
CCOC(=O)c1cc(C#N)c(NCc2ccccc2)nc1C,"11.2 µM [rising, partial curve]",–
Cc1cccc(-c2n[nH]c(S(C)(=O)=O)c2C#N)c1,"1.78 µM [rising, full curve]",–
Cc1oc(-c2ccccc2F)nc1CS(=O)(=O)CC(=O)N1CCN(c2ccccc2)CC1,"6.51 µM [rising, single point]",–
COc1cc(/C=C/C(=O)CC(=O)/C=C/c2ccc(O)c(OC)c2)ccc1O,"15.8 µM [falling, single point]",–
CC(C)(C)C(=O)Nc1ccc(C(=O)NNC(=O)Cc2ccccc2)cc1,"10.3 µM [rising, partial curve]",–
CN(C)CC(C)(C)CNS(=O)(=O)c1ccc(Cl)c(Cl)c1,"25.1 µM [falling, partial curve, poor fit]",–
CCOC(=O)c1c(-c2cccc([N+](=O)[O-])c2)csc1NC(=O)C1CCCCC1,"2.59 µM [rising, full curve, poor fit]",–
Cc1ccc(/C=N/NC(=O)c2cc(-c3cccnc3)nc3ccccc23)cc1,"3.55 µM [rising, full curve, poor fit]","3.55 µM [falling, full curve]"
COc1cc(/C=C2\SC(N)=NC2=O)ccc1O,"11.2 µM [falling, partial curve]",–
COc1ccc2c(c1)c1ncn(Cc3ccc(F)cc3)c(=O)c1n2C,"35.5 µM [rising, single point]",–
N#C/C(=C\C=C\c1ccccc1[N+](=O)[O-])C(=O)NCc1ccccc1,"12.6 µM [falling, single point]","2.51 µM [falling, full curve, poor fit]"
Cc1c(Cl)cccc1Nc1nn2c(=O)c3ccccc3nc2s1,"3.55 µM [falling, partial curve, poor fit]",–
C[N+](C)(C)CCOC(=O)C1(c2ccccc2)CCCC1,"0.146 µM [falling, full curve, poor fit]",–
COc1ccc(CNS(=O)(=O)c2c(C(=O)N3CCCCC3)c(C)n(C)c2C)cc1,"11.2 µM [rising, partial curve, poor fit]",–
CCOC(=O)c1ccc(NC(=O)CN2C(=O)NC3(CCCCCCC3)C2=O)cc1,"18.4 µM [falling, single point]",–
O=C(N/N=C/c1ccco1)c1ccc2nc[nH]c2c1,"12.6 µM [falling, single point]",–
COC(=O)C1CCN(c2nc3ccccc3nc2C(C#N)C(=O)NCCc2ccccc2)CC1 (stereo unspecified),"0.708 µM [falling, full curve, poor fit]",–
Brc1ccc2oc(-c3ccn[nH]3)cc2c1,"1.26 µM [rising, full curve, poor fit]",–
Cc1ccc(N2C(=O)Nc3cc(Cl)c(Cl)cc3N2O)cc1Cl,"31.6 µM [falling, single point]",–
Cc1cccc(CS(=O)(=O)c2nnc([C@H](Cc3ccccc3)NC(=O)OC(C)(C)C)o2)c1,"16.4 µM [falling, partial curve]","13 µM [rising, partial curve, poor fit]"
CCOC(=O)c1c(NC(=O)CSc2nnc(-c3ccccc3)n2CC)sc(C(C)=O)c1C,"11.2 µM [falling, partial curve]",–

SMILES,AC50 [1],AC50 [2]
COc1ccc(OC)c(/C=C/C(=O)c2ccc3c(c2)OCO3)c1,"16.4 µM [falling, partial curve]",–
COc1ccc(OC)c(S(=O)(=O)Nc2ccc3c(c2)n(C)c(=O)n3C)c1,"11.2 µM [rising, partial curve]",–
CC(=O)Nc1cccc(NC(=O)c2ccc(Br)cc2)c1,"1.58 µM [falling, full curve, poor fit]",–
COc1cc2c(cc1OC)CN(c1ncccc1[N+](=O)[O-])CC2,"1.12 µM [rising, partial curve, poor fit]",–
C=CCc1ccccc1OCC(O)CN1CCN(Cc2ccc3c(c2)OCO3)CC1 (stereo unspecified),"0.58 µM [falling, partial curve, poor fit]",–
C=CCOC(=O)C1=C[C@H](c2cn(C(C)=O)c3ccccc23)C[C@H](OCCCCO)O1,"6.31 µM [rising, single point]",–
COc1cc(CC(=O)Nc2ccc3nc(C)sc3c2)cc(OC)c1OC,"3.66 µM [rising, single point]",–
Cc1cc(C(=O)NCCC2=CCCCC2)no1,"22.4 µM [falling, single point]",–
C=CCNC(=O)NC(=O)COC(=O)[C@H](C)NS(=O)(=O)c1c(C)c(C)cc(C)c1C,"2.24 µM [rising, partial curve, poor fit]",–
O=C(O)c1ccc(/C=N/NC(=O)c2cc3c(ccc4ccccc43)o2)cc1,"1.78 µM [falling, full curve, poor fit]",–
O=C1C(SCCO)=C(SCCO)C(=O)c2ccccc21,"18.4 µM [falling, partial curve]","4.11 µM [falling, partial curve, poor fit]"
Cc1ccc(C(=O)Nc2nc3ccc(S(C)(=O)=O)cc3s2)o1,"16.4 µM [falling, single point]",–
c1ccc(Cc2nc3ccccc3o2)cc1,"0.146 µM [falling, full curve, poor fit]",–
[2H]c1c([2H])c([2H])c(-c2nc(N3CCCCCC3)sc2C(=O)c2ccccc2)c([2H])c1[2H],"2.51 µM [rising, partial curve, poor fit]",–
COc1cccc(-c2nn(-c3ccc(C)cc3)cc2C(=O)N2CCN(C3CCS(=O)(=O)C3)CC2)c1 (stereo unspecified),"1.64 µM [rising, partial curve, poor fit]",–
COc1ccc2[nH]c(=O)c(COC(=O)c3cccs3)cc2c1,"2.91 µM [rising, full curve, poor fit]",–
N#Cc1nc(COc2ccccc2)oc1N1CCN(Cc2ccccc2)CC1,"29.1 µM [rising, single point]",–
O=C(Nc1nnc(-c2ccccc2)s1)c1ccccc1O,"0.562 µM [falling, full curve]",–
Cc1ccc(CSc2nnc(SCC(=O)N/N=C/c3c(C)nn(-c4ccccc4)c3C)s2)cc1,"9.2 µM [falling, partial curve]",–
Cc1ccc(NC(=O)CSc2nc(=O)n(CCN(C)C)c3c2CCCC3)cc1Cl,"29.1 µM [falling, single point]",–
CCOC(=O)c1c(NC(=O)CCS(=O)(=O)c2ccccc2)sc2c1CCN(C)C2,"6.31 µM [rising, single point]",–

SMILES,AC50 [1],AC50 [2]
COc1cc(C(c2c(C)[nH][nH]c2=O)c2c(C)[nH][nH]c2=O)ccc1OCc1ccc([N+](=O)[O-])cc1,"23.1 µM [falling, single point]",–
CNC(=O)Oc1ccc2c(c1)[C@]1(C)CCN(C)[C@@H]1N2C,"15.8 µM [rising, partial curve, poor fit] and 29.1 µM [rising, single point]",–
O=C(OCc1cccc(F)c1)c1ccc2c(=O)n3c(nc2c1)CCC3,"1.26 µM [rising, full curve, poor fit]",–
O=C(Cn1nc(-c2ccccc2)ccc1=O)NCCN1CCN(c2cccc(Cl)c2)CC1,"0.146 µM [rising, full curve, poor fit]",–
CC1=CCCC(C)(C)C1/C=C/C(C)=N/NC(=O)c1ccncc1 (stereo unspecified),"35.5 µM [falling, single point]",–
O=C(NCc1ccccc1Cl)c1ccc2nnsc2c1,"35.5 µM [falling, single point]",–
Cc1ccc(NC(=O)C2CCN(S(=O)(=O)c3cc([N+](=O)[O-])ccc3Cl)CC2)nc1,"23.1 µM [falling, single point]",–
CCOC(=O)c1ccc(N=C2SC(C(=O)NC)CC(=O)N2CCc2ccccc2)cc1 (stereo unspecified),"20 µM [falling, partial curve, poor fit]",–
CN(CC(=O)Nc1ccc(F)cc1)S(=O)(=O)c1ccc2c(c1)c(=O)n(C)c(=O)n2C,"20 µM [falling, partial curve, poor fit]",–
CCn1cc(Br)c(C(=O)NN)n1,"3.55 µM [falling, partial curve, poor fit]",–
CCOC(=O)c1n[nH]n2c1nc(=S)c1ccccc12,"14.1 µM [falling, single point]",–
N#C/C(=C\c1cccnc1)c1nc2ccccc2[nH]1,"3.98 µM [falling, partial curve]",–
COc1ccc(Cc2nc3ccc(C(=O)N4CCOCC4)cc3o2)cc1,"8.91 µM [rising, partial curve]",–
[O-][n+]1onc2c3cc(-c4ccccc4)nnc3ccc21,"31.6 µM [rising, single point]",–
O=c1oc2ccccc2cc1-c1nnc(NCc2ccco2)s1,"13 µM [falling, single point]",–
COc1cc(/C=C/C(=O)c2ccc3c(c2)OCO3)cc(OC)c1OC,"25.9 µM [falling, partial curve]",–
Cc1ccc(SCCNC(=O)c2ccccc2C)cc1,"29.1 µM [falling, single point]",–
Cc1cnc([N+](=O)[O-])n1CCOC(=O)NC(=O)c1ccc(C(F)(F)F)cc1,"35.5 µM [rising, partial curve, poor fit]",–
COc1ccc(C(=O)Oc2ccc3oc(=O)sc3c2)cc1,"10.3 µM [falling, partial curve, poor fit]",–
COc1cccc(C(=O)NCCS(=O)(=O)N2CCOCC2)c1,"8.2 µM [falling, partial curve, poor fit]",–
